Data as given in patent publication US20240043860A1, “NOVEL HYDROXYPHENYLPYRUVATE DIOXYGENASE POLYPEPTIDES AND METHODS OF USE THEREOF” (Syngenta Crop Protection AG, priority 2020, published 2024).
Not every entry of the source has a single result; some have several. The list is limited to them. An entry can have further records. The records of an entry seem to repeat one measurement; a mean can stand among them.

Tests used:
[1] = tested on: transgenic tobacco plants expressing mutant HPPD SEQ ID NO: 9; assay: spray test, herbicidal damage scoring; type: in vivo; details: Table 3.4; 14 days after treatment; SEQ ID 9; 100=complete death, 0=no damage; one value per event
Protocol: (§1) Avena sativa HPPD or orthologues and variants thereof, for example SEQ IDs 1-63 and 122-127, were expressed in transgenic tobacco. DNA sequences that encode these polypeptides (optimized for tobacco or, optionally, codon optimized according to a target crop such as soybean) were prepared synthetically. Each sequence was designed to include a 5′ fusion with TMV omega 5′ leader sequence such that they are flanked at the 5′ end with XhoI and at the 3′ end with KpnI to facilitate direct cloning into a suitable binary vector for Agrobacterium-based plant transformation.
(§2) In one example, the TMV omega 5′ leader and a HPPD encoding gene of interest is excised using XhoI/KpnI and cloned into similarly digested binary vector pBIN 19 (Bevan, Nucl. Acids Res. (1984) behind a double enhanced 35S promoter ahead of a NOS 3′ transcription terminator and then transformed into E. coli DH5 alpha competent cells. DNA recovered from the E. coli is used to transform Agrobacterium tumefaciens LBA4404, and transformed bacteria are selected on media contain rifampicin and kanamycin. Tobacco tissue is subjected to Agrobacterium-mediated transformation using methods well described in the art or as described herein. For example, a master plate of Agrobacterium tumefaciens containing the HPPD expressing the binary vector is used to inoculate 10 ml LB (L broth) containing 100 mg/l Rifampicin plus 50 mg/l Kanamycin using a single bacterial colony. This is incubated overnight at 28° C. shaking at 200 rpm. This entire overnight culture is used to inoculate a 50 ml volume of LB containing the same antibiotics. Again this is cultured overnight at 28° C. shaking at 200 rpm. […]
(§3) Plants are assessed for damage and scored at, for example, 7 and 14 days after treatment (DAT). […]
(§4) Plants of events showing the least damage are grown to flowering, then bagged and allowed to self. […] Single copy events amongst the Ti plant lines are identified by their 3:1 segregation ratio (with respect to kanamycin and/or herbicide) and by quantitative RT-PCR. […]

[2] = tested on: transgenic tobacco plants expressing mutant HPPD SEQ ID 20; assay: spray test, herbicidal damage scoring; type: in vivo; details: Table 3.3, 14 days after treatment, 100=complete death, 0=no damage, one value per event
Protocol: as §1, §2, §3, §4

COc1ccc(-n2nc(C)cc(C(=O)C3C(=O)CCCC3=O)c2=O)cc1OC [Herbicide C, dioxopyritrione]
herbicidal damage scoring, Herbicide C 200 g/ha [1]: 45, 35, 90, 40
herbicidal damage scoring, Herbicide C (100 g/ha) [1]: 25, 10, 75

COCCOCc1nc(C(F)(F)F)ccc1C(O)=C1C(=O)C2CCC(C2)C1=O
herbicidal damage scoring, Bicyclopyrone 800 g/ha [2]: 55, 60, 40, 10, 30
